No signal at the amounts used counts as a negative. Construct, isoform or probe ends are uncertain for at least one entry. The comparison behind a weaker result is the experiment's own reference, which may not be listed here.

These results are taken from PMC9002759, “The Sunflower WRINKLED1 Transcription Factor Regulates Fatty Acid Biosynthesis Genes through an AW Box Binding Sequence with a Particular Base Bias”.

For the first data set, the target named is HaWRI1_DBD (6-His-TRX-WRI1_DBD) (Helianthus annuus (CAS-6 line)) (UniProt X2BZR1). Kind of data set: EMSA. To be noted: 20 mM Tris-HCl pH 8.0, 250 mM NaCl, 2 mM MgCl2, 1% glycerol, 1 mM DTT, 1 mg/mL BSA, 30 min room temperature, gels at 4 °C; DIG EMSA plus 0.05 µg/µL polydIdC; recombinant protein; residues 51-229; protein details: N-terminal 6xHis-thioredoxin fusion; label: none (agarose), digoxigenin (PAGE); probe letters rebuilt from the primers and the genome. A general note: In EMSA bound probe runs differently from free probe, usually more slowly.
As to “CACAATACAATATGTCGTTCCCGTCACATCGCGGTAATAAAAAAAATTAAACCACTACATATATAACTAAGTACTAGTTCCCCCAATTTCAGCACGAAGTACTTCATGGCAAAAACGTGAATAACTGCAACTCCAGTGTCAATCTCCTGCAAGCAACATCTGCCTCGTGCATATCGACACTCCACACTATACATAACCCACTCCGTACCCTCACCAAAACCTTCACACCTAACCTTTTCCGGCGACTCCACGGCGGCGATACACCGATCACTATGCTCTCCAGAGGTGTTCCGACCGCCACCGCCACCGCCTACAATGACGTA (double strand) [pHaFATA1-f1]”, the binding result is reported as “binds”.

The data set is the same for the next values; noted with them: 20 mM Tris-HCl pH 8.0, 250 mM NaCl, 2 mM MgCl2, 1% glycerol, 1 mM DTT, 1 mg/mL BSA, 30 min room temperature, gels at 4 °C; DIG EMSA plus 0.05 µg/µL polydIdC; recombinant protein; residues 51-229; protein details: N-terminal 6xHis-thioredoxin fusion; probe letters rebuilt from the primers and the genome.
For the sequence “AAACCCCCTAAAACCATATCTACCAATTGGTTAACTTACATGTGATTGTAAATATCTTAGAAACAAACTAGACGTTGTTCAACTCCCTCAACCACTCTGAAACTCAAAACACCTTCAAATACACACACTCACAACTTCGTTAACTCCGCTGTCATCTCCCCCGGCTAAC (double strand) [LPD-16g (-127)]”, the binding result is on record as “binds”.

Turning to “ACCATAGACCATGGGTATTGAAGTTGGGTTTTCATCCGGGTTCGGACTCTTGGATAAAATATAGATGATCCGAGTCCGATGTGTAGTTAAAATTGAGTGAATTGAGTTGGGTGAACTAACTTACATTACATTACAGCCCACCCACAGCCAACATTTCATACGTTTATTTCCAGATTTAGCCTCCTCGTTCACTCCGCCCCTCTTCTTCTTCACCCCCCCTATAAATATATTATTTATTCCATCTCACACACACAAACACACACACACATTCCTGCAACCAACA (double strand) [αPDH-13g (-101)]”, the binding result was “binds”.

Turning to “AGAAAAACATGTTAGGCTGGAGAGGGTGTGGGGGCTCCATCCTCGCCATGTCACCATGTATAGCACCCATATGGGCTCCATTATCACACCCTCCAAGTGAAGAGGGGGACGCCATTGATGGGGCTCCATCATAGTAACACCCGGTAACGTCATGGCTTGGAGTTTGGACCAATCAAATGTTTTTTTTTTTATTTTGTTTAATATGGGCTCCATCCACACCATGTAAATTAAAAGGGGGCTCCATAGGTGAGGTGGATCCTAGGT (double strand) [βPDH-17g (-276)]”, the binding result is “no binding”.

Consider “AGAGTCGAATGCATCCGTCTCGAGAATGTCTTGGGACGGACTCTATTAAGGAGGAAGAAGAGATGATGTTAATTACATTTCTTATTGTTAGAGACGCAATTACTAAATAAATATGACGCGTCTACAATTTCTATTAATAAAGTAGCATAGGCAACTTACGGGAGTTAACATTCAAACATCCCTTTCTTTATCTCTCTCTATATATACACAGATACATATAGAGAGAGATAGAGTGTACAGGGATGTGGAAATAAGATATAAGGGGAGGCGGGGCGGTCCGTGATGGATCCCCCGTCACACGTTATATAATCAGGCACACCGTCGCCGCCGTATATATAACGCGTTATTTAATCAACGCGTTAGAATCATCACG (double strand) [pHaSAD6-f4]”, for which the binding result was “no binding”.

In the case of “AGTGGGTTTTTGGGTGTTTATGTTCGATAATTCTTATGCGATTTGAGGCGGAGGGACTTGAGCCAGCTATGATCCGTTTGGCAGGTGAAGATTGGGTGAGCTTATGAGCCATGGGTGGGTTCGAGCTTGTTTTGTTTTCACACCAGTCAGGGTTAGAAATGTGTGGTAAC (double strand) [αCT-15g (-995)]”, the binding result is on record as “no binding”.

As to “CAATCGAAAAGACTATAAAGATCTGAAATTGAACACTTTGGGAGATGGGATTTTATGATCGACCAGTTTGAGACCAAGAGAGAGAGAGAGAGAGAGAGATTTATTAGGGGGAAATGAGGGGTAGCATAGAGAAGATCGTCAGTGGGTTTTTGGGTGTTTATGTTCGATAATTCTTATGCGATTTGAGGCGGAGGGACTTGAGCCAGCTATGATCCGTTTGGCAGGTGAAGATTGGGTGAGCTTATGAG (double strand) [αCT-15g (-870)]”, the binding result is listed as “binds”.

Consider “CACACGAGGATTGATTGGGCGTAAGAGGGACTCACCTCTTAGGTGAGCACCCCTTACACCCTAAGAAGGTTCATCGTGAACACCATCATCGTCCCTCCCTCCCACTGTCCTCCTCGTTGATATCGCCTAACATTTAACACTACTCTACTCTATATCTTCG (double strand) [BCCP-16g (-136)]”, for which the binding result was “binds”.

For the sequence “CGATGAGAGTGTGTTAGGTATTTATAGGTAAAATATTAGGTTCATTTTGACATCGAGAAATCCGCCGGTCAGGGGTTACTGATACTACTATTAAACTATGGGCGATAATTTATTTTTTCACCCCACTTCGCTTGTTGTGTGCTCGTTTGGCGTTCACTGGGCTGGCACAGGGCCCACACACTCGTCTCCGTCCACACCACGTTCGCCAAGCCACTCATGCTCTTAC (double strand) [ACP2-14g (-124)]”, the binding result was “binds”.

As for “CGGGTAAAAGAACTGGTTACTATGCTAAGTAAAAACTTGAAATTTTTAAAATTTATCATTATTATTAAAAATATGTTTGAAATAACATTTCAAACAAGTTTTGTAAATGAAATATAAAATTAGATAGGAAACAAAACATGTGTAGTTGTATACTACACCCACACACCACCTGTTTACCTGTGACTGTCAAAACTATCTTTCGTCACTCTCTTTGCAAACTCTCCTCGGTCATATCGCCCCCTTCATATTTAGTTTAGTTTAGTTTCTCATCTCTTTCTCTTTCTCACCGCCCCCAAATCTATACAATTTCTTTCTCCTCCCC (double strand) [BCCP-9g (-123)]”, the binding result is given as “binds”.

As for “CTGCAGATTTCAATCTCAAAGACTATAAAGATCCGAACTTTATCACTTTTGGGAGAAGGGGTTCTGTTATCGCCCCCTTAGGACAAAGAAAGACGCTAATTTTAAGAGATTTATTGGAAAGAAATGAGGAGAGAGAGGGGTAACATAGAGAAGATCGTCACTGGTTTTTGGGTTTTTATGTTCGATAATTCTTATGCGGTTTGAGCCAGCTATGATCCGCTAGGCCGTTGAAGATTAGGTGAACCAATGTGAGCAGTAGG (double strand) [αCT-10g (-915)]”, the binding result is on record as “binds”.

Consider “GAGAATCAAAGCTTCAACCGCTAATAATATCGGTTTATGCGATGAAACTGAATCCAGATCTCGATCTACAACAATAAAAACCTAAAATCACATTCCGATTCAGATTTTCTCTGTACTGATACGTAACAACAATTACAGCGAGAATCAAAGCTTTAAGATTTTAACCGCTAAGTCGCTAACAGAATCGATTTATTCGAAGAAACTGAATCCAGATCTAGATCGAGCTTAGGCGACAGCGACGGGATCTGGTGGATTAGGTTGTGTGG (double strand) [BCCP-16g (-1242/-1203/-1048)]”, for which the binding result was “no binding”.

With “GGCAATGTATGTGTTTCCCGTCGCGTCGCGCGCGCACCTATCGGTTATTAACCAAAACCGGTTACCGGTGAGCAATAACTAAATCGTTAACCTAAACCAAACCGAAAACAGACGAAACCGAACCGAAATCAACCAAAAATTTACTTAACTGAAAAACGAAATAACCAAAAACCGGTTATCAATTTTTTTGTACTCTCGTTTAACCAAAATTAGCTGAATCGAACTGAATTATTCATATTTTCATATAATTCAAGCTTTTATACCTCCATTTTATATATTTCATATTTTATATCTCAATTTCATAGATTTATACTTTCGTTTAATGTATTTATACCTCAATTTCATATAATTTAAGCAAGGGTGGGAGTTGGCTGCTTTTAACTGA (double strand) [pHaFATA1-f3]”, the binding result was “no binding”.

As to “GGGGTTAGTTAGGGTATATGGGAAAAATGTGGTCACACTGATTGACACTCCAACGCTTTTCAGCTTAGGTTATATCGCCGATCAGTCGGAGCTTCCAAGACCAACACACAGTCTTCATATATCAATCACTTCAATTTCATTTACACAATTGCTCCTCTTCGTTACTCTCTCTCCTCATTTTCTCTCTCTAGAACGCTCATGGCTGCCGCAGCATCTGCTTCTTTCACCGGATCGGTTTTCAAATCCAACCGTATCTCAACTAACTCCGC (double strand) [KAR1 mut A/G]”, the binding result is given as “no binding”.

Staying with this data set, now noted: polydIdC; 20 mM Tris-HCl pH 8.0, 250 mM NaCl, 2 mM MgCl2, 1% glycerol, 1 mM DTT, 1 mg/mL BSA, 30 min room temperature, gels at 4 °C; DIG EMSA plus 0.05 µg/µL polydIdC; recombinant protein; residues 51-229; protein details: N-terminal 6xHis-thioredoxin fusion; label: digoxigenin; probe letters rebuilt from the primers and the genome.
On to “CACAATACAATATGTCGTTCCCGTCACATCGCGGTAATAAAAAAAATTAAACCACTACATATATAACTAAGTACTAGTTCCCCCAATTTCAGCACGAAGTACTTCATGGCAAAAACGTGAATAACTGCAACTCCAGTGTCAATCTCCTGCAAGCAACACACACTATACATAACCCACTCCGTACCCTCACCAAAACCTTCACACCTAACCTTTTCCGGCGACTCCACGGCGGCGATACACCGATCACTATGCTCTCCAGAGGTGTTCCGACCGCCACCGCCACCGCCTACAATGACGTA (double strand) [f1-deltaAWbox]”, for which the binding result is “no binding”.

The same data set, now with this note: smear at maximal protein; 20 mM Tris-HCl pH 8.0, 250 mM NaCl, 2 mM MgCl2, 1% glycerol, 1 mM DTT, 1 mg/mL BSA, 30 min room temperature, gels at 4 °C; DIG EMSA plus 0.05 µg/µL polydIdC; recombinant protein; residues 51-229; protein details: N-terminal 6xHis-thioredoxin fusion; probe letters rebuilt from the primers and the genome.
For “GGGGTTAGTTAGGGTATATGGGAAAAATGTGGTCACACTGATTGACACTCCAACGCTTTTCAGCTTAGATTATATCGCCGATCAGTCGGAGCTTCCAAGACCAACACACAGTCTTCATATATCAATCACTTCAATTTCATTTACACAATTGCTCCTCTTCGTTACTCTCTCTCCTCATTTTCTCTCTCTAGAACGCTCATGGCTGCCGCAGCATCTGCTTCTTTCACCGGATCGGTTTTCAAATCCAACCGTATCTCAACTAACTCCGC (double strand) [KAR1-17g (-130)]”, the binding result is given as “binds more weakly”.

The data set is the same for the next values; noted with them: weak but visible shift; 20 mM Tris-HCl pH 8.0, 250 mM NaCl, 2 mM MgCl2, 1% glycerol, 1 mM DTT, 1 mg/mL BSA, 30 min room temperature, gels at 4 °C; DIG EMSA plus 0.05 µg/µL polydIdC; recombinant protein; residues 51-229; protein details: N-terminal 6xHis-thioredoxin fusion; probe letters rebuilt from the primers and the genome.
With “GGGGTTAGTTAGGGTATATGGGAAAAATGTGGTCACACTGATTGACACTCCAACGCTTTTCAGCTTCGATTATATCGCCGATCAGTCGGAGCTTCCAAGACCAACACACAGTCTTCATATATCAATCACTTCAATTTCATTTACACAATTGCTCCTCTTCGTTACTCTCTCTCCTCATTTTCTCTCTCTAGAACGCTCATGGCTGCCGCAGCATCTGCTTCTTTCACCGGATCGGTTTTCAAATCCAACCGTATCTCAACTAACTCCGC (double strand) [KAR1 mut A/C]”, the binding result is listed as “binds more weakly”.
